# From article PMC6562204 (Bioorganic & Medicinal Chemistry, 2018)
# System: CK2α
# Settings: co-crystal / soak with CK2α
row,SMILES,binding site observed in crystal structure
1,NCc1cc(Cl)c(Cl)c(-c2ccc[nH]2)c1 [Compound 6],bound exclusively at the interface
2,NCCc1ccc(Cl)c(Cl)c1 [NMR154L],binding in the interface pocket as well as the ATP site and the αD site
